From the supplement of paper PMC6411743
± gives the standard deviation of the averaged measurements. The entries are a selection whose mix differs from that of the whole data set.

Columns and labels:
Experiment in all cases: NP40-soluble protein abundance relative to vehicle (solubility fold change) (ratio); higher = more soluble protein in presence of AMP-PNP
UQCRFS1 = molecular target: T1, UQCRFS1 (UniProt P47985)
T1 sequence (whole entry): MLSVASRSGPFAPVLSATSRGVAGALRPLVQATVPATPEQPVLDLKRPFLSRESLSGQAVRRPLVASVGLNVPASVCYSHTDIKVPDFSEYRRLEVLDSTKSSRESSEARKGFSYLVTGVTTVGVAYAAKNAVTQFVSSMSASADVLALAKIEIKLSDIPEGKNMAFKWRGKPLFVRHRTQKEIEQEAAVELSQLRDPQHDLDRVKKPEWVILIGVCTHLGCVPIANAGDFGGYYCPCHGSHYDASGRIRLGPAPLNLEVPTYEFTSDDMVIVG
Outline: (§1)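 Crude Jurkat lysate, prepared by Dounce homogenisation, was exposed to eight concentrations from 0.1 to 10 mM for 10 min at room temperature and then 3 min at 37 °C. Solubilisation used 0.8% NP40 with benzonase for 60 min at 4 °C, followed by ultracentrifugation and TMT labelling of the supernatant for LC-MS/MS. After vsn normalisation of intensities, each value is the fold change against the detergent-processed vehicle within each replicate, across three independent experiments.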

[1] = molecular target: T2, UniProt P49754 and related entries
T2 sequence (whole entry): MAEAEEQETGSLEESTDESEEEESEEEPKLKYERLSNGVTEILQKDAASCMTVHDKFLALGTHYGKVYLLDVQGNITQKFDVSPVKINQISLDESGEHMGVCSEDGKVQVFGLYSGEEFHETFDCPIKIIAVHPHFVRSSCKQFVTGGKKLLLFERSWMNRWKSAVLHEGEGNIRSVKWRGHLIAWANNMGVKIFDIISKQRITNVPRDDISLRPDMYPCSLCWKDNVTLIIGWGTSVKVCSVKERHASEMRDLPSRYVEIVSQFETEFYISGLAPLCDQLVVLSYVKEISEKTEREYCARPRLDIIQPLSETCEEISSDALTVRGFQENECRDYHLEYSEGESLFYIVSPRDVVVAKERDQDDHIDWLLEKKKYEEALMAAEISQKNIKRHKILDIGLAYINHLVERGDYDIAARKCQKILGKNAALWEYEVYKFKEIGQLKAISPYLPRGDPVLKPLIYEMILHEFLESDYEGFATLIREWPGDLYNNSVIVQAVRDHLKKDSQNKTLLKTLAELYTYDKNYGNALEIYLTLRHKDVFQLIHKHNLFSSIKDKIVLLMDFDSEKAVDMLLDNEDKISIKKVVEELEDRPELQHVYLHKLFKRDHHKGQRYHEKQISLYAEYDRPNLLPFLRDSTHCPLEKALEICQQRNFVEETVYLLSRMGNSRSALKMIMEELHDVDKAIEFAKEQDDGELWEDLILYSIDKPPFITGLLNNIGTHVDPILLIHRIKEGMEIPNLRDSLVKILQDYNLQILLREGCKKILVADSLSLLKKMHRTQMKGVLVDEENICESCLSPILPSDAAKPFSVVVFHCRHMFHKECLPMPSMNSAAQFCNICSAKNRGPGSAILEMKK
Outline: as §1

[2] = molecular target: T3, UniProt P50395 and related entries
T3 sequence (whole entry): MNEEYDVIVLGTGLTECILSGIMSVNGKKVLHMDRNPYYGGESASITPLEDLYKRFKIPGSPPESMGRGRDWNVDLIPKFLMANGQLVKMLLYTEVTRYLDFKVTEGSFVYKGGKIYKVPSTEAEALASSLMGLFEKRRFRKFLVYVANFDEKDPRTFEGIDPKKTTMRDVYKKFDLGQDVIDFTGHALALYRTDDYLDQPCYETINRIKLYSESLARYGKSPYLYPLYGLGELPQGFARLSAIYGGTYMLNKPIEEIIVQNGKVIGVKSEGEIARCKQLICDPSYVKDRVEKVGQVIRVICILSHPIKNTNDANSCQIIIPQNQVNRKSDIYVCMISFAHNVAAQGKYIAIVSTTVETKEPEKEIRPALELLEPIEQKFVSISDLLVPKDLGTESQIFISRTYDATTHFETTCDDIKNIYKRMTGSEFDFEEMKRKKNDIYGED
Outline: as §1

[3] = molecular target: T4, UniProt P51178 and related entries
T4 sequence (whole entry): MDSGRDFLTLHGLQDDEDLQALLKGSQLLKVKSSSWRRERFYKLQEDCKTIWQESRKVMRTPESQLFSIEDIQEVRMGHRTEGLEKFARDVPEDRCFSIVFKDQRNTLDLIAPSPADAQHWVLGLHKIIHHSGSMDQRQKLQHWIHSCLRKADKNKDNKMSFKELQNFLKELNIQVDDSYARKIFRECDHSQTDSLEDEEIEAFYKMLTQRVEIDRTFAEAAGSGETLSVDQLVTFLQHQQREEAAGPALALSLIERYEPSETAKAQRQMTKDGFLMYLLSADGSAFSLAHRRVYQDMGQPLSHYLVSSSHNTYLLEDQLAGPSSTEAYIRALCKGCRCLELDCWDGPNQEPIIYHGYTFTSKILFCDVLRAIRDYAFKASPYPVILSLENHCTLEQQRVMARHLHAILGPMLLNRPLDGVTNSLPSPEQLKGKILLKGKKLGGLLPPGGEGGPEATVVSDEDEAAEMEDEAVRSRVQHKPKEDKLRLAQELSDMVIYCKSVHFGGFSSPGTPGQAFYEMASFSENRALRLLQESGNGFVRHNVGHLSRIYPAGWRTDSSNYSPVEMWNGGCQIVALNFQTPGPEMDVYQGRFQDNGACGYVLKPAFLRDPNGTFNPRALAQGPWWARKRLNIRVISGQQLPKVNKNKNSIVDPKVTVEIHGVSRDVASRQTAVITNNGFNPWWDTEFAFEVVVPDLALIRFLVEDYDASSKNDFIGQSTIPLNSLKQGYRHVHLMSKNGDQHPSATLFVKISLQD
Outline: as §1

UniProt P52209-2 = molecular target: T5, UniProt P52209-2
T5 sequence (whole entry): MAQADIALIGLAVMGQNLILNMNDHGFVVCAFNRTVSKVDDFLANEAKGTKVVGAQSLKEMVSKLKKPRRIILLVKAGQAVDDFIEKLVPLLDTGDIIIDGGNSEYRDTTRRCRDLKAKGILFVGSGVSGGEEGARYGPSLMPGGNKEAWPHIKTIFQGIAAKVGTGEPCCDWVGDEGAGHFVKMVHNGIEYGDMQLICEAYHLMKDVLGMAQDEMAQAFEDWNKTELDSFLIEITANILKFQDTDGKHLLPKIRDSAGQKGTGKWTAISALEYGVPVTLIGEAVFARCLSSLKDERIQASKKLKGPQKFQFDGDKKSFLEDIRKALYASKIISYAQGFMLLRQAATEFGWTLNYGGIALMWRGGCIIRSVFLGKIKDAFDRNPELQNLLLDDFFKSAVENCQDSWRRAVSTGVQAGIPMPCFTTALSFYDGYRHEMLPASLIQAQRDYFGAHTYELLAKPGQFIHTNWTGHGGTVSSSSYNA
Outline: as §1

[4] = molecular target: T6, UniProt P52594 and related entries
T6 sequence (whole entry): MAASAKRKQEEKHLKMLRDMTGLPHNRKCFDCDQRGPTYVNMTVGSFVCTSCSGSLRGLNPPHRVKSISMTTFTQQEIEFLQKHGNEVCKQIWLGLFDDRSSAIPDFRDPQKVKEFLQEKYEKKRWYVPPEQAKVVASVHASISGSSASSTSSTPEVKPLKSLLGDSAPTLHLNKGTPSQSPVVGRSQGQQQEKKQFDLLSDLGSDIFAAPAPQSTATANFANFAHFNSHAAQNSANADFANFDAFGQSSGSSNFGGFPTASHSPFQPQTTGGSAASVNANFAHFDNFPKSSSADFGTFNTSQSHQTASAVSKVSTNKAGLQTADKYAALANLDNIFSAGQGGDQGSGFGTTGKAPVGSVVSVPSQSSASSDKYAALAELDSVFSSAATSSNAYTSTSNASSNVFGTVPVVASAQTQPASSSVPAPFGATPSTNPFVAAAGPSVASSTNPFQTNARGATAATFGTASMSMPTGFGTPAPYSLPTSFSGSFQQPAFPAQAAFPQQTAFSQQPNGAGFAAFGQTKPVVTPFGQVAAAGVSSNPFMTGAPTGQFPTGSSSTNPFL
Outline: as §1

Nc1ncnc2c1ncn2[C@@H]1O[C@H](COP(=O)(O)OP(=O)(O)NP(=O)(O)O)[C@@H](O)[C@H]1O [adenylyl imidodiphosphate]
NP40-soluble protein abundance (UQCRFS1; concentration: 6mM): 0.989 ± 0.052 | NP40-soluble protein abundance (UQCRFS1; concentration: 8mM): 0.985 ± 0.077 | NP40-soluble protein abundance (UQCRFS1; concentration: 10mM): 0.968 ± 0.05 | NP40-soluble protein abundance ([1]; concentration: 1mM): 0.962 ± 0.053 | NP40-soluble protein abundance ([1]; concentration: 2mM): 0.902 ± 0.046 | NP40-soluble protein abundance ([1]; concentration: 4mM): 0.919 ± 0.0064 | NP40-soluble protein abundance ([1]; concentration: 6mM): 0.871 ± 0.021 | NP40-soluble protein abundance ([1]; concentration: 8mM): 0.863 ± 0.034 | NP40-soluble protein abundance ([1]; concentration: 10mM): 0.834 ± 0.032 | NP40-soluble protein abundance ([2]; concentration: 1mM): 0.986 ± 0.031 | NP40-soluble protein abundance ([2]; concentration: 2mM): 0.918 ± 0.081 | NP40-soluble protein abundance ([2]; concentration: 4mM): 0.9669 ± 0.0071 | NP40-soluble protein abundance ([2]; concentration: 6mM): 0.951 ± 0.035 | NP40-soluble protein abundance ([2]; concentration: 8mM): 0.978 ± 0.027 | NP40-soluble protein abundance ([2]; concentration: 10mM): 0.934 ± 0.037 | NP40-soluble protein abundance ([3]; concentration: 1mM): 0.984 ± 0.025 | NP40-soluble protein abundance ([3]; concentration: 2mM): 0.944 ± 0.062 | NP40-soluble protein abundance ([3]; concentration: 4mM): 0.975 ± 0.034 | NP40-soluble protein abundance ([3]; concentration: 6mM): 0.968 ± 0.029 | NP40-soluble protein abundance ([3]; concentration: 8mM): 0.967 ± 0.018 | NP40-soluble protein abundance ([3]; concentration: 10mM): 0.949 ± 0.041 | NP40-soluble protein abundance (UniProt P52209-2; concentration: 1mM): 0.985 ± 0.033 | NP40-soluble protein abundance (UniProt P52209-2; concentration: 2mM): 0.964 ± 0.027 | NP40-soluble protein abundance (UniProt P52209-2; concentration: 4mM): 0.961 ± 0.043 | NP40-soluble protein abundance (UniProt P52209-2; concentration: 6mM): 1.02 ± 0.067 | NP40-soluble protein abundance (UniProt P52209-2; concentration: 8mM): 1.01 ± 0.051 | NP40-soluble protein abundance (UniProt P52209-2; concentration: 10mM): 1.02 ± 0.035 | NP40-soluble protein abundance ([4]; concentration: 1mM): 1.03 ± 0.036 | NP40-soluble protein abundance ([4]; concentration: 2mM): 1.04 ± 0.081 | NP40-soluble protein abundance ([4]; concentration: 4mM): 1.02 ± 0.059 | NP40-soluble protein abundance ([4]; concentration: 6mM): 1.05 ± 0.046
